Data as given in PubChem BioAssay AID1259290 (Sanger Institute, 2017)
The deposit covers 794 reagents; below is a random part of them. In the full data, 9 (1.1%) are marked active. 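Calls rest on knock-down alone, not drug synergy; synergy above 0.15 was grouped apart and does not affect calls.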 Further read-outs or replicates are left out here. Not stated in the record: the amount of reagent, the time to read-out.

- Aim: 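Identify kinases needed for colorectal cancer cell survival, with or without anchor drugs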 (primary screen)
- Cell system: human SNUC1 colorectal cancer cells
- Knock-down reagent: siRNA pool against human genes
- Conditions: anchor drugs BYL719 1 µM, cetuximab 5 µg/ml or trametinib 10 nM, or DMSO vehicle alone
- Measurement: 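Cell viability relative to a non-targeting siRNA control, replicate-averaged, as robust z-score for knock-down alone, plus a synergy score for each anchor drug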
- Direction: viability z-score, siRNA alone: higher = more viable cells; low values mean essential gene
- Call rule: 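Essential when the robust viability z-score with siRNA alone falls below -3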
- Calls: active = essential: knock-down alone cut viability (z below -3); inactive = no clear viability loss with knock-down alone

Which result is listed for RIPK4 (receptor interacting serine/threonine kinase 4)?
viability z-score, siRNA alone: 0.71; Call: inactive

For RELA (RELA proto-oncogene, NF-kB subunit), how do the results read?
viability z-score, siRNA alone: -0.724; Call: inactive

What is on record for TSSK4 (testis specific serine kinase 4)?
viability z-score, siRNA alone: 0.936; Call: inactive

What did the screen give for PIM1 (Pim-1 proto-oncogene, serine/threonine kinase)?
viability z-score, siRNA alone: -1.48; Call: inactive

With TRIM27 (tripartite motif containing 27), how do the results read?
viability z-score, siRNA alone: 0.783; Call: inactive

For LATS1 (large tumor suppressor kinase 1), what was measured?
viability z-score, siRNA alone: 0.936; Call: inactive

For MAP2K5 (mitogen-activated protein kinase kinase 5), what was measured?
viability z-score, siRNA alone: 0.936; Call: inactive

What did the screen give for CDK11B (cyclin dependent kinase 11B)?
viability z-score, siRNA alone: 0.801; Call: inactive

Which result is listed for DGKA (diacylglycerol kinase alpha)?
viability z-score, siRNA alone: -0.393; Call: inactive

How did the screen score RPS6KA6 (ribosomal protein S6 kinase A6)?
viability z-score, siRNA alone: -0.69; Call: inactive

What did the screen give for TEC (tec protein tyrosine kinase)?
viability z-score, siRNA alone: 0.936; Call: inactive

With CALM2 (calmodulin 2), what was measured?
viability z-score, siRNA alone: 0.936; Call: inactive

Which result is listed for NRBP2 (nuclear receptor binding protein 2)?
viability z-score, siRNA alone: -1.25; Call: inactive

What is on record for NRAS (NRAS proto-oncogene, GTPase)?
viability z-score, siRNA alone: 0.936; Call: inactive

What did the screen give for PIK3R4 (phosphoinositide-3-kinase regulatory subunit 4)?
viability z-score, siRNA alone: 0.66; Call: inactive

For NRK (Nik related kinase), what was measured?
viability z-score, siRNA alone: 0.936; Call: inactive

For ERBB3 (erb-b2 receptor tyrosine kinase 3), what was measured?
viability z-score, siRNA alone: 0.199; Call: inactive

With ERN2 (endoplasmic reticulum to nucleus signaling 2), what does the deposit list?
viability z-score, siRNA alone: 0.936; Call: inactive

With ATP23, what was measured?
viability z-score, siRNA alone: 0.936; Call: inactive

What did the screen give for AK1 (adenylate kinase 1)?
viability z-score, siRNA alone: 0.936; Call: inactive

What is on record for CSNK1G2 (casein kinase 1 gamma 2)?
viability z-score, siRNA alone: 0.936; Call: inactive

With EPHB2 (EPH receptor B2), what was measured?
viability z-score, siRNA alone: -0.383; Call: inactive

Which result is listed for TAOK1 (TAO kinase 1)?
viability z-score, siRNA alone: 0.415; Call: inactive

For NR4A2 (nuclear receptor subfamily 4 group A member 2), what was measured?
viability z-score, siRNA alone: -0.55; Call: inactive

How did the screen score AXL (AXL receptor tyrosine kinase)?
viability z-score, siRNA alone: -2.02; Call: inactive

What did the screen give for CHEK1 (checkpoint kinase 1)?
viability z-score, siRNA alone: -4.18; Call: active

With TNNI3K (TNNI3 interacting kinase), what does the deposit list?
viability z-score, siRNA alone: -0.992; Call: inactive

Which result is listed for PKM (pyruvate kinase M1/2)?
viability z-score, siRNA alone: 0.0699; Call: inactive
